Assay results taken from US20160315271A1, “ORGANIC TRANSISTOR, COMPOUND, ORGANIC SEMICONDUCTOR MATERIAL FOR NON-LIGHT-EMITTING ORGANIC SEMICONDUCTOR DEVICE, MATERIAL FOR ORGANIC TRANSISTOR, COATING SOLUTION FOR NON-LIGHT-EMITTING ORGANIC SEMICONDUCTOR DEVICE, AND ORGANIC SEMICONDUCTOR FILM FOR NON-LIGHT-EMITTING ORGANIC SEMICONDUCTOR DEVICE” (FUJIFILM Corporation, priority 2014, published 2016).

How the values were obtained:
[1] = FET characteristics of organic transistor element of Example 2 (semiconductor active layer formed using compound alone, bottom gate/bottom contact); settings: source-drain −80 V; for Carrier mobility: compound alone cast from toluene, bottom gate/bottom contact, gate 20 V to −100 V, normal pressure/nitrogen atmosphere; for Threshold voltage shift after repeated driving: compound alone, repeatedly driven 100 times, gate +20 V to −100 V
[2] = FET characteristics of organic transistor element of Example 3 (semiconductor active layer formed using compound and PαMS binder together); settings: for Carrier mobility: compound 1 mg with 1 mg PαMS binder in toluene, bottom gate/bottom contact; for Threshold voltage shift after repeated driving: compound with PαMS binder, repeatedly driven 100 times
[3] = FET characteristics of organic transistor element of Example 4 (bottom gate/top contact, octyltrichlorosilane-treated SiO2); settings: for Carrier mobility: W=5 mm, L=80 μm, octyltrichlorosilane-treated SiO2 370 nm; for Threshold voltage shift after repeated driving: repeatedly driven 100 times
[4] = listed as comparative compound 1
[5] = listed as comparative compound 2

Compound	Carrier mobility [1]	Threshold voltage shift after repeated driving [1]	Carrier mobility [2]	Threshold voltage shift after repeated driving [2]	Carrier mobility [3]	Threshold voltage shift after repeated driving [3]	Carrier mobility [1, 4]	Carrier mobility [2, 4]	Carrier mobility [3, 4]	Carrier mobility [1, 5]	Carrier mobility [2, 5]	Carrier mobility [3, 5]
CCCCCCCCc1cc2cc3ccc4cc5cc(CCCCCCCC)n(C)c5cc4c3cc2n1C [Compound 3]	1.0 × 10^−3 cm^2/Vs	A (|Vafter−Vbefore|≦5 V)	–	–	–	–	–	–	–	–	–	–
CCCCCCCCCCCCc1cc2cc3ccc4cc5cc(CCCCCCCCCCCC)sc5cc4c3cc2s1 [Compound 5]	2.6 × 10^−2 cm^2/Vs	A (|Vafter−Vbefore|≦5 V)	7.3 × 10^−3 cm^2/Vs	A (|Vafter−Vbefore|≦5 V)	8.9 × 10^−3 cm^2/Vs	A (|Vafter−Vbefore|≦5 V)	–	–	–	–	–	–
CCCCCCCCc1ccc(-c2cc3cc4ccc5cc6cc(-c7ccc(CCCCCCCC)cc7)sc6cc5c4cc3s2)cc1 [Compound 11]	1.6 × 10^−2 cm^2/Vs	A (|Vafter−Vbefore|≦5 V)	1.5 × 10^−2 cm^2/Vs	A (|Vafter−Vbefore|≦5 V)	6.5 × 10^−3 cm^2/Vs	A (|Vafter−Vbefore|≦5 V)	–	–	–	–	–	–
CCCCCCCCc1ccc(-c2cc3cc4ccc5cc6cc(-c7ccc(CCCCCCCC)s7)sc6cc5c4cc3s2)s1 [Compound 16]	9.4 × 10^−2 cm^2/Vs	A (|Vafter−Vbefore|≦5 V)	1.2 × 10^−2 cm^2/Vs	A (|Vafter−Vbefore|≦5 V)	–	–	–	–	–	–	–	–
CCCCCCCCc1csc(-c2cc3cc4ccc5cc6cc(-c7cc(CCCCCCCC)cs7)sc6cc5c4cc3s2)c1 [Compound 24]	6.6 × 10^−2 cm^2/Vs	A (|Vafter−Vbefore|≦5 V)	–	–	–	–	–	–	–	–	–	–
Cc1c(C)n(-c2ccccc2)c2c1ccc1c3ccc4c(C)c(C)n(-c5ccccc5)c4c3ccc12 [compound 1, reference compound]	5.8 × 10^−5 cm^2/Vs	C (|Vafter−Vbefore|>10 V)	4.0 × 10^−5 cm^2/Vs	C (|Vafter−Vbefore|>10 V)	4.8 × 10^−5 cm^2/Vs	C (|Vafter−Vbefore|>10 V)	low carrier mobility	low carrier mobility	low carrier mobility	–	–	–
c1ccc(-n2c3ccccc3c3cc4ccc5cc6c7ccccc7n(-c7ccccc7)c6cc5c4cc32)cc1 [compound 2, reference compound]	3.3 × 10^−5 cm^2/Vs	C (|Vafter−Vbefore|>10 V)	5.8 × 10^−5 cm^2/Vs	C (|Vafter−Vbefore|>10 V)	6.4 × 10^−5 cm^2/Vs	C (|Vafter−Vbefore|>10 V)	–	–	–	low carrier mobility	low carrier mobility	low carrier mobility
